Test results from article PMC4305328.
These are yes or no findings as the source states them, for the method shown. Binding seen in cells or lysates may run through a third protein. Sequences can lack the tags named with a protein.

Biological target: T1, Fkh2-YFP (C. albicans) (UniProt Q5A7S7)
T1 sequence: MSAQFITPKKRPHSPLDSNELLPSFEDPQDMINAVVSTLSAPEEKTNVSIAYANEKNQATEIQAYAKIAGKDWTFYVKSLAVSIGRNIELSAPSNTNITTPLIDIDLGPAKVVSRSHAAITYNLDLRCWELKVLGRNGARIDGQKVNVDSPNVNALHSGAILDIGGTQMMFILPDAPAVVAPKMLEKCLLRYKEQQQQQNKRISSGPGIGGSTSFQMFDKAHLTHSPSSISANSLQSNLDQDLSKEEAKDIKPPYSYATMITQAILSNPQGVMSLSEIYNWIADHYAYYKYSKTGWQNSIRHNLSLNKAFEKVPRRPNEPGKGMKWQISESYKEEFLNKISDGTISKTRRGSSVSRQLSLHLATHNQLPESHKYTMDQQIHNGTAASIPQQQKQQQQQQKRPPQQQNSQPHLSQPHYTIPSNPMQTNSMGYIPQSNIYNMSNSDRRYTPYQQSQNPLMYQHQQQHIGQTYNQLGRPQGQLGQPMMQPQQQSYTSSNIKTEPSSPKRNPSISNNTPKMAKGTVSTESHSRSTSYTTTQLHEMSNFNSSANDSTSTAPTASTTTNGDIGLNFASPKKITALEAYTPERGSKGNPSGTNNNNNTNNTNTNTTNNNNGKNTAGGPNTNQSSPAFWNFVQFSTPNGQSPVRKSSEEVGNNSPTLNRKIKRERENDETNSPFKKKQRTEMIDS
Experiment: co-IP; Fkh2-YFP/GFP precipitated with anti-GFP antibody on protein-G Dynabeads from 2 mg total protein, 40 min post hyphal induction; washed twice with lysis buffer containing 150 mM NaCl; anti-HA blot; control strain expressing only the HA-tagged protein

Substance: Srp1-HA (C. albicans)
- binding: no binding
